{"source": "patent US6177404A", "about": "(Merck & Co., Inc., priority 1998, dated 2001)", "system": "LNCaP prostate tumor cells", "assay": "In vitro Alamar Blue cytotoxicity assay of non-cleavable oligopeptide-doxorubicin conjugates", "type": "cell-based, human", "conditions": "FIG. 4 legend; unmodified oligopeptide tested alone", "protocol": "The cytotoxicities of the non-cleaveable oligopeptide-doxorubicin conjugates, prepared as described in Example 4, against a line of cells which is known to be killed by unmodified doxorubicin were assessed with an Alamar Blue assay. Specifically, cell cultures of LNCaP prostate tumor cells, which are a human metastatic prostate adenocarcinoma isolated from a needle biopsy of a lymph node (LNCaP.FGC: American Type Culture Collection, ATCC CRL 1740), or DuPRO cells in 96 well plates were diluted with medium containing various concentrations of a given conjugate (final plate well volume of 200 μl). The cells were incubated for 3 days at 37° C. and then 20 μl of Alamar Blue was added to the assay well. The cells were further incubated and the assay plates were read on a EL-310 ELISA reader at the dual wavelengths of 570 and 600 nm at 4 and 7 hours after addition of Alamar Blue. Relative percentage viability at the various concentration of conjugate tested was then calculated versus control (no conjugate) cultures. Cytotoxicities of unmodified doxorubicin and unmodified oligopeptide were also assessed.", "note": "Part of at least one peptide drawing is inferred or uncertain, most often the ends. Ends that are not written are not given here."}
{"substance": "Ac-AGPTGASA [oligopeptide]", "values": [{"measurement": "cell killing activity", "result": "no detectable cell killing activity"}]}
